# Test results published in the supplement of paper PMC10849652.
# The chains behind the UniProt entries cited, without tags or fusion partners. Where a name states a change or a piece, a line headed by the entry shows the natural chain unless it says otherwise.
# UniProt P29401: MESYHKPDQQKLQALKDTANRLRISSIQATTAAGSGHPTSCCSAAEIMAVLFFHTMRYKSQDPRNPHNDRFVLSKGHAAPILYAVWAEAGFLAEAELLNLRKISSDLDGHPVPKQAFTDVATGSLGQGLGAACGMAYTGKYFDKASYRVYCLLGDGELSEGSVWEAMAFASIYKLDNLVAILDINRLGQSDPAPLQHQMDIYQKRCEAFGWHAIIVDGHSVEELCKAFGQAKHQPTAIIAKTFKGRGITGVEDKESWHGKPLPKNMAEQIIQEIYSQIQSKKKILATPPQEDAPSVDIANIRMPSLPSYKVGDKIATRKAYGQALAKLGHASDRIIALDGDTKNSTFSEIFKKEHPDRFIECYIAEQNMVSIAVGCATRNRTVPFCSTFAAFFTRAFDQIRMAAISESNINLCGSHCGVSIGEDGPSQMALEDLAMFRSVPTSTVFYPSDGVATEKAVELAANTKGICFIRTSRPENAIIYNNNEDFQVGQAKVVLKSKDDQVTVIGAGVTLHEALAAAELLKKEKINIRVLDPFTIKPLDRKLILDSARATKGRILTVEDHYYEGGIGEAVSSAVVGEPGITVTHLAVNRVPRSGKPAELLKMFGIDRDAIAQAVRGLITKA
# UniProt Q92734, whole entry, looked up: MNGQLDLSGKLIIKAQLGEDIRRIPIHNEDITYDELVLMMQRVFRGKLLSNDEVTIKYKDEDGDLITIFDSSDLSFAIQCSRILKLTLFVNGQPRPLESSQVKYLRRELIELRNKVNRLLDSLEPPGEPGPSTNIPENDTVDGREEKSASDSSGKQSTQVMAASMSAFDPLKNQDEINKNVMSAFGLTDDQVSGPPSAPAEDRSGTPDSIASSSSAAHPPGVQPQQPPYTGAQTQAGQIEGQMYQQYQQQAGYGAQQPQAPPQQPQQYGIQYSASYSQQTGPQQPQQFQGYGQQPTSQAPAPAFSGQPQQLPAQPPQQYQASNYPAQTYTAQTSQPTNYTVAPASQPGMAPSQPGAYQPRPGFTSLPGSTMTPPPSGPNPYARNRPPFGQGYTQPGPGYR
# UniProt A6NFQ2: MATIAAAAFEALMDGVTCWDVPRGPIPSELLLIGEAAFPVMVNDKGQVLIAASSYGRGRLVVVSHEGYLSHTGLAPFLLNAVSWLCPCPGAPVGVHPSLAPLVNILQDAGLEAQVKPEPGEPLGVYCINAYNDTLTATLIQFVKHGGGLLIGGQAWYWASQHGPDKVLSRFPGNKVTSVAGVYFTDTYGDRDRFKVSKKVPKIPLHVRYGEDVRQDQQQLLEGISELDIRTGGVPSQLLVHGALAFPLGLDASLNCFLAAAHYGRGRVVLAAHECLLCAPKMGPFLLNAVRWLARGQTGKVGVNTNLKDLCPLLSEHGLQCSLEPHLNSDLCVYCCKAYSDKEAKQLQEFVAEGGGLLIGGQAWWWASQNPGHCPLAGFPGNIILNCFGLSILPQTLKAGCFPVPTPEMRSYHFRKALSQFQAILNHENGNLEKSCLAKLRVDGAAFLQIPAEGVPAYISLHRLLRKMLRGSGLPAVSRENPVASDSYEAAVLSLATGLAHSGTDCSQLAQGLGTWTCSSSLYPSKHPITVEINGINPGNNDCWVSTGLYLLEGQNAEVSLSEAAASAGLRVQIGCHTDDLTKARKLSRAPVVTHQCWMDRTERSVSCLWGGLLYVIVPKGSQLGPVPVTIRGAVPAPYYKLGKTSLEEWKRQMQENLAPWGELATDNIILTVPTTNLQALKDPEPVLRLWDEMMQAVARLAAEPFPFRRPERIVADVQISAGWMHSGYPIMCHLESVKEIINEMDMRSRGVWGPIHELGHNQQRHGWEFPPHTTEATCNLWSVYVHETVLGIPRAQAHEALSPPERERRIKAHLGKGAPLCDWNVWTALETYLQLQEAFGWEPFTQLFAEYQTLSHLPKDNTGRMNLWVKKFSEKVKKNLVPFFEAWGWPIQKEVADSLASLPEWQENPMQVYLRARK
# UniProt Q9Y5J7: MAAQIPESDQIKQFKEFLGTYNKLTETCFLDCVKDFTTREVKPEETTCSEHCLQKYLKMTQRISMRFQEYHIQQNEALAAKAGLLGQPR
# UniProt Q3ZCQ8: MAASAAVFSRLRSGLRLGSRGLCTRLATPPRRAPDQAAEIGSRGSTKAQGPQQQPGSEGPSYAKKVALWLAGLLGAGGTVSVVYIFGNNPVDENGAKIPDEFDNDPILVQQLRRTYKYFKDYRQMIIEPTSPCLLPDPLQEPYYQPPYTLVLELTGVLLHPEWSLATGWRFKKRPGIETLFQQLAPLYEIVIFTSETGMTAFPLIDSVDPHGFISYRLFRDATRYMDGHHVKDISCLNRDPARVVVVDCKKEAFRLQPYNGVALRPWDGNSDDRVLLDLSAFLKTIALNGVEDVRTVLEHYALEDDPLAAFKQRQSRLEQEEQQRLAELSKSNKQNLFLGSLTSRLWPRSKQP
# UniProt Q9BVW5: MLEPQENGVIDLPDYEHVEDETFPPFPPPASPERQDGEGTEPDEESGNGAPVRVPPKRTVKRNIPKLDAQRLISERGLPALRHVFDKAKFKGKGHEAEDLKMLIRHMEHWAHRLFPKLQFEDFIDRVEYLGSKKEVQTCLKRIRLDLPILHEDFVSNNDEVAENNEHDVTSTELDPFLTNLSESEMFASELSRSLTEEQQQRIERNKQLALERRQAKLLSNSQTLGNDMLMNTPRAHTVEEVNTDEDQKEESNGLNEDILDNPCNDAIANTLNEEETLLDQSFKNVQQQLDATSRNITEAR
# UniProt Q99426: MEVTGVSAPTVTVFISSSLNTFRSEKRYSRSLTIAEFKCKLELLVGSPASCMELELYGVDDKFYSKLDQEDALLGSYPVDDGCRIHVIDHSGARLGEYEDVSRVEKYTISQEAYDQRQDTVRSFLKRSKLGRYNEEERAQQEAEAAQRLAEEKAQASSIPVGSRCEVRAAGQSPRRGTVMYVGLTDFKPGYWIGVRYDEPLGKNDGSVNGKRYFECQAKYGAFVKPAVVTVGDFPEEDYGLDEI
# UniProt Q9Y5J9: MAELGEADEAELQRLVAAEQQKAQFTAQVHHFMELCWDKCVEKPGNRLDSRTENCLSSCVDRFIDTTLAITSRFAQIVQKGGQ
# UniProt Q15814: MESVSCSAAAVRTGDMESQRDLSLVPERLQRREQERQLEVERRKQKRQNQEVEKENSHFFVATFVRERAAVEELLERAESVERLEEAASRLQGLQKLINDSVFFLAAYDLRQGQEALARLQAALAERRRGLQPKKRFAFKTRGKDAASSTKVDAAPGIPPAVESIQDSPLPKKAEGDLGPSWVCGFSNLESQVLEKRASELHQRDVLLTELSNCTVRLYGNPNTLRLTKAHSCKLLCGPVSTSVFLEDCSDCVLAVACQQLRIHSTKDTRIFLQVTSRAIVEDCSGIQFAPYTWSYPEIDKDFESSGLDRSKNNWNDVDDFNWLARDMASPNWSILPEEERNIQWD
# UniProt Q9HA65: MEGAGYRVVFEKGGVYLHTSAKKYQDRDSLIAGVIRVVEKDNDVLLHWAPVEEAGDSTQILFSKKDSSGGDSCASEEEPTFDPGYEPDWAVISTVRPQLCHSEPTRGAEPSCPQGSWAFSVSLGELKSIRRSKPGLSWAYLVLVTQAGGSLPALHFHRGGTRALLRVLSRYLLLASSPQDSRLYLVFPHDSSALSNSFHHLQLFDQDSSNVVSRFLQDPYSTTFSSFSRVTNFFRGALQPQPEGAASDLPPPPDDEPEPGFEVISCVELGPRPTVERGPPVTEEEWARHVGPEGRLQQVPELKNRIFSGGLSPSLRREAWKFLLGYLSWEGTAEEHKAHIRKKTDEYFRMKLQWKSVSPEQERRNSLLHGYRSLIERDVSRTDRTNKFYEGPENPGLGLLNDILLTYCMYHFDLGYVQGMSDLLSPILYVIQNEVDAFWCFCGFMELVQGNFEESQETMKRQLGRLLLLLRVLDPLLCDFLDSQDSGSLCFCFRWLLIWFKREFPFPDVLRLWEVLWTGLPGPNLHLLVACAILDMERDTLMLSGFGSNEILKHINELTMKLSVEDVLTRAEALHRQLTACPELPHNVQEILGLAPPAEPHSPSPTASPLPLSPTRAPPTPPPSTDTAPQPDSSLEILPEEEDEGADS
# UniProt Q9NPL8: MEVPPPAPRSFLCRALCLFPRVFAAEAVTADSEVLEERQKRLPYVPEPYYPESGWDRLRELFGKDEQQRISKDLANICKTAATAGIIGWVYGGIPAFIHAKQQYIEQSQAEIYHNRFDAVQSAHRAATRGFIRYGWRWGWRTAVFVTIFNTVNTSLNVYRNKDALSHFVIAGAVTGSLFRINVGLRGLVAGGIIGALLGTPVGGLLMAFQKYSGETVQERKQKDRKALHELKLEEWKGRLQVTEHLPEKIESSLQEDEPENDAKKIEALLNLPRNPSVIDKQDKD
# UniProt Q15554: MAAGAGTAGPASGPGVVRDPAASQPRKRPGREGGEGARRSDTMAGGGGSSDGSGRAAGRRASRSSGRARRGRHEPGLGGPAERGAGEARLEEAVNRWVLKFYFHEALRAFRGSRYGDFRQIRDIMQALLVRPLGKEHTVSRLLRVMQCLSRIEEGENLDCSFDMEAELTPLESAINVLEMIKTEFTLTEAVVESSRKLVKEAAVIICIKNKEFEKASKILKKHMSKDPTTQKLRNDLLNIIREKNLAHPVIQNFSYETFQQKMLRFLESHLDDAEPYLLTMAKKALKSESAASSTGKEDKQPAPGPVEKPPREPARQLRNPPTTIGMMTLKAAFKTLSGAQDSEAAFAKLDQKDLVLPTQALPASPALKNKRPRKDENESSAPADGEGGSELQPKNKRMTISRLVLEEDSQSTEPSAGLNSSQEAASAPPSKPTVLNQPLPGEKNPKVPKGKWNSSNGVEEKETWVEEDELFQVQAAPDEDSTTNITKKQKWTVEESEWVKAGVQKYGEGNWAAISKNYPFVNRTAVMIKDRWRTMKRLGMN
# UniProt P35443: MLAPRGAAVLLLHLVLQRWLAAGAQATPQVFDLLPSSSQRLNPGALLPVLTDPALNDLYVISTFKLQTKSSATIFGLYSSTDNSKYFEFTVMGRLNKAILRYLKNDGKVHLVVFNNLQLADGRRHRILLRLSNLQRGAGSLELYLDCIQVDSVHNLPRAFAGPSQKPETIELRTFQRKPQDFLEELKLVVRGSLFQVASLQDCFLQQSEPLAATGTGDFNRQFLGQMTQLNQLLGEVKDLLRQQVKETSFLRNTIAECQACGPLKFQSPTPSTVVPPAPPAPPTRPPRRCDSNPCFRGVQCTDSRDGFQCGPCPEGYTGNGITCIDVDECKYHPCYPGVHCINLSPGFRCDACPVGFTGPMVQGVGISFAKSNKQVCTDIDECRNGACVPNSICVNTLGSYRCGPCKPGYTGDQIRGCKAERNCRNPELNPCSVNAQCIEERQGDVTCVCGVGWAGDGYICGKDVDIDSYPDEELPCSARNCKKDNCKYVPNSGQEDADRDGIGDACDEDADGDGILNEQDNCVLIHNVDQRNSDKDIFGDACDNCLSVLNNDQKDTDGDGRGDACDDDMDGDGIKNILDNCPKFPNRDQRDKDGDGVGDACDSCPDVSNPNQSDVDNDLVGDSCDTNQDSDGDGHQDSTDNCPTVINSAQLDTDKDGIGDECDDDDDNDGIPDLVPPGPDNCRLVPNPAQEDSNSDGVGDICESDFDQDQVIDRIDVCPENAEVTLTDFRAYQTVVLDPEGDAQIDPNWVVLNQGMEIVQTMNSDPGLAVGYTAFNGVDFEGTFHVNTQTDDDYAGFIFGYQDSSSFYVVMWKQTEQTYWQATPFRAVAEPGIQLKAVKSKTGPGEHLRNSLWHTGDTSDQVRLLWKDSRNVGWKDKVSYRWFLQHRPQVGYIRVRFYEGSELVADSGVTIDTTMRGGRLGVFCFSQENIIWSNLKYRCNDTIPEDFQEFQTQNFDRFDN
# UniProt Q99595: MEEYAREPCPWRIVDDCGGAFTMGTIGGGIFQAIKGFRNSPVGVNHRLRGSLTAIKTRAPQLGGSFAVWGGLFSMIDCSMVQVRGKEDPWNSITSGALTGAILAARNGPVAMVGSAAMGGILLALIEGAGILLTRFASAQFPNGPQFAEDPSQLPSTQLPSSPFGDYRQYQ
# UniProt Q01664: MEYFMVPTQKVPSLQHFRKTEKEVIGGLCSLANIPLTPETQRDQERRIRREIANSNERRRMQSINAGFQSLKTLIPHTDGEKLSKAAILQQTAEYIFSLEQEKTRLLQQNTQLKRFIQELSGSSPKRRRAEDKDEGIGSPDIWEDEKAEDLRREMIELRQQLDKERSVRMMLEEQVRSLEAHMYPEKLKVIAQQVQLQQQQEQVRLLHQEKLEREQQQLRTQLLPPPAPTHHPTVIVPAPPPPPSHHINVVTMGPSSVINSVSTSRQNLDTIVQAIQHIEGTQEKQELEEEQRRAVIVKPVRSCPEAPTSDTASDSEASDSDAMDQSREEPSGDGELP
# UniProt Q8TBR7: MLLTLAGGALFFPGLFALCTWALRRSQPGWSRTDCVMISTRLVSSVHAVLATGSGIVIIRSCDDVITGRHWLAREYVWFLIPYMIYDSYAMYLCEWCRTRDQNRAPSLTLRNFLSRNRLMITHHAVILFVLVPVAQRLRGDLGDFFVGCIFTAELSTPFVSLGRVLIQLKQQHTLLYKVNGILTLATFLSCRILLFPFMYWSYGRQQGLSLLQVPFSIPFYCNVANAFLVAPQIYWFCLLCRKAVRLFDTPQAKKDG
# The other results are listed elsewhere or left out.
# Compound: c1cn2cc(-c3ccc4cn[nH]c4c3)nc(Nc3ccc(N4CCOCC4)cc3)c2n1 [entospletinib]
# Experiment: log2 fold change, soluble protein after heating vs DMSO (PISA); higher = thermal stabilisation; K562 cells, 10 uM, 30 min; active = over 0.2 and 3.5 SD of the protein, either way, in both replicates (recomputed)
# Summary of the method: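 K562 cells at 2×10^6 cells/mL were treated for 30 min with 10 μM compound, and aliquots were heated for 3 min over 48°C-58°C before pooling. Extraction used PBS with 0.5% NP-40 at 4°C, and soluble protein was the supernatant after 21,000xg for 90 min, measured by TMTpro 16plex LC-MS/MS with channel sums equalised. Thermal stability values, relative to control samples and from duplicates, are log2 fold changes.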
row,Target,log2 fold change
1,TKT isoform 2 (UniProt P29401),inactive: 0.001
2,TFG (UniProt Q92734),inactive: -0.054
3,TCAF2 (UniProt A6NFQ2),inactive: 0.358
4,TCEA1 (UniProt P23193),inactive: -0.012
5,THOP1 (UniProt P52888),inactive: -0.05
6,TIMM9 (UniProt Q9Y5J7),inactive: 0.009
7,TIMM50 isoform 2 (UniProt Q3ZCQ8),inactive: 0.011
8,THUMPD2 (UniProt Q9BTF0),inactive: 0.051
9,TIPIN (UniProt Q9BVW5),inactive: -0.06
10,TBC1D4 (UniProt O60343),inactive: -0.007
11,TBCB (UniProt Q99426),inactive: -0.033
12,TIMM8B (UniProt Q9Y5J9),inactive: 0.05
13,TBCC (UniProt Q15814),inactive: 0
14,TBC1D17 (UniProt Q9HA65),inactive: -0.009
15,TIMMDC1 (UniProt Q9NPL8),inactive: 0.001
16,TERF2 (UniProt Q15554),inactive: 0.078
17,TEX10 (UniProt Q9NXF1),inactive: 0.518
18,TBL1XR1 (UniProt Q9BZK7),inactive: -0.019
19,THBS4 (UniProt P35443),inactive: 0.135
20,TIMM17A (UniProt Q99595),inactive: -0.049
21,TBC1D2B (UniProt Q9UPU7),inactive: -0.008
22,TFAP4 (UniProt Q01664),inactive: -0.101
23,TLCD3A (UniProt Q8TBR7),inactive: -0.053

# Single values from above.
# Under log2 fold change, THBS4 (UniProt P35443) has inactive: 0.135
# Under log2 fold change, THUMPD2 (UniProt Q9BTF0) has inactive: 0.051
